Our source for the step yield and isolated mass values is patent US20110118172 (published 2011).

A short description of one data set: peptide synthesis. As to conditions: coupling step.
The nature of data set [1]: general procedure: Fmoc solid-phase peptide synthesis; Rink Amide MBHA resin (0.4 mmol/g); DIPCDI/HOAt. To be noted: whole synthesis.

In the case of “Z-Phe-ψ(NHCO)-Gly-Leu-Arg(Boc2,Me)-Trp-NH2”, the step yield in the data set “peptide synthesis” was 66.6%.
With “des(1)-Ac-[D-Tyr2,Hyp3,Alb4,Thr5,D-Cha6,Gly7ψ((E)CH═CH)Leu8,Arg(Me)9,Trp10]MS10”, in data set [1] (scale 0.04 mmol), the isolated mass was found to be 4.5 mg.
In turn, “des(1)-Ac-[D-Tyr2,Hyp3,Thr5,Cha6,AzaGly7,Arg(Me)9,Trp10]MS10” had an isolated mass in data set [1] (scale 0.02 mmol) of 7.4 mg.
“des(1)-Ac-[D-Tyr2,Hyp3,Thr5,Phe6%(CSNH)Gly7,Arg(Me)9,Trp10]MS10” had an isolated mass in data set [1] (scale 0.03 mmol) of 3.7 mg.
In data set [1] (scale 0.02 mmol), “des(1)-amidino-[D-Tyr2,Hyp3,Thr5,AzaGly7,Arg(Me)9,Trp10]MS10” gave an isolated mass of 1.9 mg.
